Results are given in words; binding and its absence hold for the method and conditions named. Binding seen in cells or lysates may run through a third protein. Here binding means that the protein was enriched with, or labelled near, the bait; the list need not be complete. Tags and fused reporters may be left off the sequences shown.
Legend:
[1] = molecular target: T1, USP18A (from the untagged USP18 construct) (human) (UniProt Q9UMW8); experiment: affinity purification with mass spectrometry; bands of the two USP18 isoforms cut from the anti-FLAG (6HF-ISG15) immunoprecipitate, in-gel trypsin digest, LC-MS/MS; matching gel areas of the USP18-only sample as negative control
T1 sequence: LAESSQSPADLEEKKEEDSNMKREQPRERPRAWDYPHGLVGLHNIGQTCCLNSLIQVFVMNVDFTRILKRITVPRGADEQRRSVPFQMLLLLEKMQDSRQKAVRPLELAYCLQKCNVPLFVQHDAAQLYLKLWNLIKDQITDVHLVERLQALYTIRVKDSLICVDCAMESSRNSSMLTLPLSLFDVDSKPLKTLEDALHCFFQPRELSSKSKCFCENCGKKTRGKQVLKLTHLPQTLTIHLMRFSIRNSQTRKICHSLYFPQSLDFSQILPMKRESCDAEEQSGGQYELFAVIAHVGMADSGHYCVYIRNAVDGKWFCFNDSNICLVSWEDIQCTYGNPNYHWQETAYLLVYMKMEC

[2] = molecular target: T2, USP18B (from the untagged USP18 construct) (human) (UniProt Q9UMW8); experiment: as above
T2 sequence: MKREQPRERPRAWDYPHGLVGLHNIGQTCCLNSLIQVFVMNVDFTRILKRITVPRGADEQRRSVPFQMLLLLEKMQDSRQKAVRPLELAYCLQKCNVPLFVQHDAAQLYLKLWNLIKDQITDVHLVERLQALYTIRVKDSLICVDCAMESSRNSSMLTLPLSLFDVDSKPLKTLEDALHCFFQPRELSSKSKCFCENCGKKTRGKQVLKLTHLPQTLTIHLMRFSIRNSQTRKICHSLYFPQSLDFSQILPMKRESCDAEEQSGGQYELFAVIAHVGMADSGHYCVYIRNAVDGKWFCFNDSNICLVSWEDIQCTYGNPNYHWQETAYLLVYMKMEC

- binding [1]: binds
- binding [2]: binds
Substance: USP41 (found by mass spectrometry in the ISG15 immunoprecipitates) (human (endogenous in HEK-293T))
